Reference: publication doi:10.1101/2021.06.01.446599
Results are given in words; binding and its absence hold for the method and conditions named. Where a sequence is shown, tags or fusion partners need not be part of it.

Key:
Assay in all cases: CeLINC
[1] = molecular target: T1, GFP::MAPH-1.1 (C. elegans) (UniProt P91859)
T1 sequence: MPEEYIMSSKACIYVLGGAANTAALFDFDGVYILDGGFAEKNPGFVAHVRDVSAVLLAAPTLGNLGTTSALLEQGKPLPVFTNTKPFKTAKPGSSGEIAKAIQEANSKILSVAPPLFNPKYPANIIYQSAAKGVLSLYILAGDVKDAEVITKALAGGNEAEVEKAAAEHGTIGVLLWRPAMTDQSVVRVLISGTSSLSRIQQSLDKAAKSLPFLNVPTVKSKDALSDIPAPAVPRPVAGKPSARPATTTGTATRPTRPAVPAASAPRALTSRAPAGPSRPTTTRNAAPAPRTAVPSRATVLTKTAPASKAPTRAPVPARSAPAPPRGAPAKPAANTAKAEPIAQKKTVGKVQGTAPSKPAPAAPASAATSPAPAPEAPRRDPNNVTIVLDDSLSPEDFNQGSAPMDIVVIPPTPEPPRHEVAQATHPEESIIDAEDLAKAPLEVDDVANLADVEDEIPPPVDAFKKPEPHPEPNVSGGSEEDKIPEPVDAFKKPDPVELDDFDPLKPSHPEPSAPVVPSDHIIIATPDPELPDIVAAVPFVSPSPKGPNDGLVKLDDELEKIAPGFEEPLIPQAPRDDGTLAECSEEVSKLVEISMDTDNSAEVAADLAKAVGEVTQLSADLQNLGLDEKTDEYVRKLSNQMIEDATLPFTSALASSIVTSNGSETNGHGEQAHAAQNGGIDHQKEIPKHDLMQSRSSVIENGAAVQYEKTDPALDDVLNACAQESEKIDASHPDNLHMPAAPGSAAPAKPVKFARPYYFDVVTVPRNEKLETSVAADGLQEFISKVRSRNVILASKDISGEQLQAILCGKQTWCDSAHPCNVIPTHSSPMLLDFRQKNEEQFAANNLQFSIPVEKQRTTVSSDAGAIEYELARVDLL

[2] = molecular target: T2, DLG-1 (fluorescently tagged at the endogenous locus, Figure 5A, B, D, E) (C. elegans) (UniProt G5ECY0)
T2 sequence: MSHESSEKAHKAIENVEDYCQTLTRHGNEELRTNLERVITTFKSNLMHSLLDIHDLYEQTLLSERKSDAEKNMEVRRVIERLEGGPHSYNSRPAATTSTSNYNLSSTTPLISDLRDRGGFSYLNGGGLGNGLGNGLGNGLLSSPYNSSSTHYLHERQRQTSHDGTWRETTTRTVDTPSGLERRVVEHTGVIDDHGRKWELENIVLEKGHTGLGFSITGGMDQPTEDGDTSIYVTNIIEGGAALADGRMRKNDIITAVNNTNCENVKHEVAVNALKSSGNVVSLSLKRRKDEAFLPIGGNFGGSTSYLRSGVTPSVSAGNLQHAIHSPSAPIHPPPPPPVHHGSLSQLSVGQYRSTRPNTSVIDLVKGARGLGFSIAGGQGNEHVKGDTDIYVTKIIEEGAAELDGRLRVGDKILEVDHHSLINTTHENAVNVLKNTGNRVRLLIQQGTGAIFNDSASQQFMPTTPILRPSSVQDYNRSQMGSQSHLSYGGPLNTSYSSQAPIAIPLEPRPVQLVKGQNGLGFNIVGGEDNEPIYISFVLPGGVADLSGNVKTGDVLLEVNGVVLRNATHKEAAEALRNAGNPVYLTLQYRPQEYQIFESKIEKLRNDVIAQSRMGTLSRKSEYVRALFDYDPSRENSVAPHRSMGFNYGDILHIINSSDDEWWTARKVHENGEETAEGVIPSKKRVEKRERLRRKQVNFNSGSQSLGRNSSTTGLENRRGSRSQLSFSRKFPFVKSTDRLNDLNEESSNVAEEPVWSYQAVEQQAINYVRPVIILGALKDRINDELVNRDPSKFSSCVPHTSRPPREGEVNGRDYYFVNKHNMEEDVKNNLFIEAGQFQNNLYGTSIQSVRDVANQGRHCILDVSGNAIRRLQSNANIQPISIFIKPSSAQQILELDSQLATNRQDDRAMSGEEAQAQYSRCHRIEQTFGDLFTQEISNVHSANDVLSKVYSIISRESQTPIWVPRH

GFP::PKC-3 (C. elegans) = molecular target: T3, GFP::PKC-3 (C. elegans) (UniProt Q19266)
T3 sequence: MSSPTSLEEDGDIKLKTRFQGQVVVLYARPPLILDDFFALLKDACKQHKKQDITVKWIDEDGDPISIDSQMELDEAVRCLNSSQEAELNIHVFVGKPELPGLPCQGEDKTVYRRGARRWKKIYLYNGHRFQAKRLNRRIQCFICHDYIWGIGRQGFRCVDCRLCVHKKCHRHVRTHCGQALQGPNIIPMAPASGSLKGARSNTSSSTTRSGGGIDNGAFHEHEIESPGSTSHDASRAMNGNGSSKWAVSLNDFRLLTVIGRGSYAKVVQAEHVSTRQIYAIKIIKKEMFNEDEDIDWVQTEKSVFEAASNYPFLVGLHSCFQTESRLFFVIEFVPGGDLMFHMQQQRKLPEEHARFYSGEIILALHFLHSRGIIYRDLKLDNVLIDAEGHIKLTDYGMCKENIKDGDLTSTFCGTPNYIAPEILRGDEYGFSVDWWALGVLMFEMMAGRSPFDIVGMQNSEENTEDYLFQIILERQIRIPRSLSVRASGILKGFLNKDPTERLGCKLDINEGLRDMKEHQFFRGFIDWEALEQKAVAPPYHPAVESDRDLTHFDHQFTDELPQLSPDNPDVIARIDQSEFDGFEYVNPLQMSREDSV

[3] = molecular target: T4, LET-413 (fluorescently tagged at the endogenous locus) (C. elegans) (UniProt O61967)
T4 sequence: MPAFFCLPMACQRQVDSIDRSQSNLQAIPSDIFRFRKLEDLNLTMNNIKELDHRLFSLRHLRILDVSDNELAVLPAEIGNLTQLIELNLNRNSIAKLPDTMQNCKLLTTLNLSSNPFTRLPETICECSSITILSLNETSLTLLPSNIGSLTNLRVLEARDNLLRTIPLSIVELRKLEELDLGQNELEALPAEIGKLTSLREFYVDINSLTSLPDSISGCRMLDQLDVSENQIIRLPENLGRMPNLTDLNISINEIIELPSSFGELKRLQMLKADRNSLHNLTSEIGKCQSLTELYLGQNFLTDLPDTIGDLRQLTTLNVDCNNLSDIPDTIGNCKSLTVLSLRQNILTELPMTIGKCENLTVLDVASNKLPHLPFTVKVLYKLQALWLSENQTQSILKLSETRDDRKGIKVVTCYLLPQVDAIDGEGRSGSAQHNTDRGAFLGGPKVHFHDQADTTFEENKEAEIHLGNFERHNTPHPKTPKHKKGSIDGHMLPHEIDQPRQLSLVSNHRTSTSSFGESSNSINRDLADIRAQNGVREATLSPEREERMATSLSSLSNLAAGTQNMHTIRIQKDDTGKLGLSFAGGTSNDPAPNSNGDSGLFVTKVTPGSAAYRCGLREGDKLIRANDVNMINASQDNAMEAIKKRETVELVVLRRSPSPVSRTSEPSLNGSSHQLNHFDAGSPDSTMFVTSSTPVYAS

ERM-1::AID::mCherry (C. elegans) was tested, and the binding [1] was “no binding”.

For LGL-1::mScarlet (C. elegans), the binding [2] was “no binding”, the binding (GFP::PKC-3 (C. elegans)) was “no binding” and the binding [3] was “no binding”.
